These are yes or no findings as the source states them, for the method shown. For part of these data: In cells and extracts the contact can be indirect. Some entries that bind do so weakly or less than the wild type.

Sequences of proteins named here, by UniProt entry; tags and fusion partners are left off. A change or cut given only in a name is not applied to a line headed by its entry.
UniProt P62330, whole entry: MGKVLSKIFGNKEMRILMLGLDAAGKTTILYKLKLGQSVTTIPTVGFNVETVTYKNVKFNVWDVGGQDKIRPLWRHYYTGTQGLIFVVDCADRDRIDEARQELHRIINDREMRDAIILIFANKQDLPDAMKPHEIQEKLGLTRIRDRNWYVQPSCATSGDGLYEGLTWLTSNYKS

In assay [1] the target is Arf1^QL-Y81H (Arf1 Q71L, Y81H; switch 2 mutant) (UniProt P84077). As to the kind of experiment: pull-down; both purified.
For assay [2], the target named is Arf1^QL-T45I (Arf1 Q71L, T45I; switch 1 mutant) (UniProt P84077). The experiment in a line: pull-down; both purified.
For assay [3], the target named is Arf1^QL-Y35Q (Arf1 Q71L, Y35Q; alpha-1 helix mutant) (UniProt P84077). The experiment in a line: pull-down; both purified.
Assay [4] has as its target Arf1^QL-I74T (Arf1 Q71L, I74T; switch 2 mutant) (UniProt P84077). The experiment in a line: pull-down; both purified.
Assay [5] addresses Arf1^QL-I49T (Arf1 Q71L, I49T; switch 1 mutant) (UniProt P84077). As to the kind of experiment: pull-down; both purified.
The target in a further assay is Arf6-Y31Q (UniProt P62330). The experiment in a line: pull-down.
The target of assay [6] is constitutively active GTP-bound myristoylated Arf1-Q71L (UniProt P84077). As to the kind of experiment: pull-down; both purified.
Assay [7] has as its target recombinant myristoylated Arf6 activated with GTPγS (UniProt P62330). The experiment in a line: pull-down; both purified.

Turning to “EspG wild-type, recombinant (effector domain residues 48-398) (from UniProt Q7DB50 31-381) (domain or fragment)”, the binding entry is recorded as “binds” in assay [1]; “binds” in assay [2]; “no binding” in assay [3]; “binds” in assay [4]; “binds” in assay [5]; “binds” with Arf6-Y31Q.
For “EspGΔ^AΔ^P (EspG I152S, P351A, P355A), recombinant (from UniProt Q7DB50 31-381) (domain or fragment)”, the binding result in assay [6] and in assay [7] was “no binding” in each case.
On to “EspGΔ^R (EspG Q293A), recombinant (from UniProt Q7DB50 31-381) (domain or fragment)”, for which the binding entry in assay [6] is given as “binds”.

The values above are taken from PMC5081413.
